PubChem BioAssay AID743121 – NCATS | 2013
This is one part, drawn at random, of about 26,000 reagents. Over the whole deposit, 167 (0.63%) are marked active. 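Calls are per gene from RSA p-values that are not deposited; an individual active-marked siRNA can sensitise only weakly.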 The numbers tell different reagents against one gene apart. Not all columns of the deposit are shown.

- Test: 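Genes whose silencing strengthens cell killing by camptothecin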 (primary screen)
- Cell system: MDA-MB-231 cells, a human breast cancer line
- Reagent: single siRNA against human genes, 20 nM siRNA (0.8 pmol per well)
- Timing: 120 h (drug added 48 h after transfection, read 72 h later)
- Treatment: camptothecin 20 nM (about EC30) for 72 h; vehicle 0.1% DMSO in parallel plates
- Measurement: 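Cell viability by ATP luminescence (CellTiter-Glo) as % of non-targeting siRNA wells, and the log2 ratio of viability without drug over viability with camptothecin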
- Reading the numbers: log2 vehicle/camptothecin viability: higher = stronger sensitisation to camptothecin
- Call rule: 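Each gene scored by redundant siRNA activity (RSA) over its individual siRNA ratios; a gene is called active at p < 0.001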

CTSD (cathepsin D) #1 — log2 vehicle/camptothecin viability = -0.323; activity call = inactive
CTSD (cathepsin D) #2 — log2 vehicle/camptothecin viability = -0.604; activity call = inactive
CTSD (cathepsin D) #3 — log2 vehicle/camptothecin viability = -0.517; activity call = inactive
IP6K1 (inositol hexakisphosphate kinase 1) #1 — log2 vehicle/camptothecin viability = -0.404; activity call = inactive
IP6K1 (inositol hexakisphosphate kinase 1) #2 — log2 vehicle/camptothecin viability = 0.131; activity call = inactive
IP6K1 (inositol hexakisphosphate kinase 1) #3 — log2 vehicle/camptothecin viability = 0.0122; activity call = inactive
IP6K1 (inositol hexakisphosphate kinase 1) #4 — log2 vehicle/camptothecin viability = -0.00308; activity call = inactive
SOS1 (SOS Ras/Rac guanine nucleotide exchange factor 1) #1 — log2 vehicle/camptothecin viability = 0.147; activity call = inactive
SOS1 (SOS Ras/Rac guanine nucleotide exchange factor 1) #2 — log2 vehicle/camptothecin viability = 0.0383; activity call = inactive
SOS1 (SOS Ras/Rac guanine nucleotide exchange factor 1) #3 — log2 vehicle/camptothecin viability = -0.455; activity call = inactive
CNOT4 (CCR4-NOT transcription complex subunit 4) #1 — log2 vehicle/camptothecin viability = 0.293; activity call = inactive
CNOT4 (CCR4-NOT transcription complex subunit 4) #2 — log2 vehicle/camptothecin viability = 0.0825; activity call = inactive
CNOT4 (CCR4-NOT transcription complex subunit 4) #3 — log2 vehicle/camptothecin viability = 0.262; activity call = inactive
CNOT4 (CCR4-NOT transcription complex subunit 4) #4 — log2 vehicle/camptothecin viability = -0.0763; activity call = inactive
TXNDC2 (thioredoxin domain containing 2) #1 — log2 vehicle/camptothecin viability = -0.137; activity call = inactive
TXNDC2 (thioredoxin domain containing 2) #2 — log2 vehicle/camptothecin viability = 0.159; activity call = inactive
TXNDC2 (thioredoxin domain containing 2) #3 — log2 vehicle/camptothecin viability = -0.0241; activity call = inactive
TXNDC2 (thioredoxin domain containing 2) #4 — log2 vehicle/camptothecin viability = 0.3; activity call = inactive
CDK18 (cyclin dependent kinase 18) #1 — log2 vehicle/camptothecin viability = -0.226; activity call = inactive
CDK18 (cyclin dependent kinase 18) #2 — log2 vehicle/camptothecin viability = 0.0782; activity call = inactive
CDK18 (cyclin dependent kinase 18) #3 — log2 vehicle/camptothecin viability = 0.174; activity call = inactive
CDK18 (cyclin dependent kinase 18) #4 — log2 vehicle/camptothecin viability = -0.231; activity call = inactive
CDKL4 (cyclin dependent kinase like 4) #1 — log2 vehicle/camptothecin viability = -0.675; activity call = inactive
CDKL4 (cyclin dependent kinase like 4) #2 — log2 vehicle/camptothecin viability = -0.167; activity call = inactive
CDKL4 (cyclin dependent kinase like 4) #3 — log2 vehicle/camptothecin viability = -0.197; activity call = inactive
CDKL4 (cyclin dependent kinase like 4) #4 — log2 vehicle/camptothecin viability = 0.0024; activity call = inactive

Ordered by “log2 vehicle/camptothecin viability” (descending): 2 of the entries above
CNOT4 (CCR4-NOT transcription complex subunit 4) #4 — log2 vehicle/camptothecin viability = -0.0763; activity call = inactive
TXNDC2 (thioredoxin domain containing 2) #1 — log2 vehicle/camptothecin viability = -0.137; activity call = inactive
